Consider two substances from article PMC9426557.

The chains behind the UniProt entries cited, without tags or fusion partners. Where a name states a change or a piece, a line headed by the entry shows the natural chain unless it says otherwise.
UniProt Q1K8X0: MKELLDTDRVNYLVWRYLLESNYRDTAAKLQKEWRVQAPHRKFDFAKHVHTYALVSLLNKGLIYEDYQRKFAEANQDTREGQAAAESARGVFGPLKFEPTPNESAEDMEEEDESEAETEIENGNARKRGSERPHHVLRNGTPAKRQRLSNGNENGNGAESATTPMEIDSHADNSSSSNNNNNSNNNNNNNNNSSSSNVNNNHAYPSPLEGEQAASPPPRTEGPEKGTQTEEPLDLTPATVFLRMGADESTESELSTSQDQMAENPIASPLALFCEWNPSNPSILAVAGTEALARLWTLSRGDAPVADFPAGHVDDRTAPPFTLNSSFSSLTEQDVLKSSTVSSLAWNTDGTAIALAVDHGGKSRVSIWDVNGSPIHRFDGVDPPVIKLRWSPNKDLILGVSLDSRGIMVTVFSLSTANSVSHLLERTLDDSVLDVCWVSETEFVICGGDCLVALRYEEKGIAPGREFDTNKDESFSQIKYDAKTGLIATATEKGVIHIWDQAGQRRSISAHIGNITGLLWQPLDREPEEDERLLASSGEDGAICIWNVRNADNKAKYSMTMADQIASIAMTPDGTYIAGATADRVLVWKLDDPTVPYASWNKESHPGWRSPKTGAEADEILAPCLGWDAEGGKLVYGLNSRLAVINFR

Test [1] has as its target T1, HDA-2 (histone deacetylase 2, endogenous) (Neurospora crassa (endogenous in N. crassa mycelium)) (UniProt Q7SEL7).
T1 sequence: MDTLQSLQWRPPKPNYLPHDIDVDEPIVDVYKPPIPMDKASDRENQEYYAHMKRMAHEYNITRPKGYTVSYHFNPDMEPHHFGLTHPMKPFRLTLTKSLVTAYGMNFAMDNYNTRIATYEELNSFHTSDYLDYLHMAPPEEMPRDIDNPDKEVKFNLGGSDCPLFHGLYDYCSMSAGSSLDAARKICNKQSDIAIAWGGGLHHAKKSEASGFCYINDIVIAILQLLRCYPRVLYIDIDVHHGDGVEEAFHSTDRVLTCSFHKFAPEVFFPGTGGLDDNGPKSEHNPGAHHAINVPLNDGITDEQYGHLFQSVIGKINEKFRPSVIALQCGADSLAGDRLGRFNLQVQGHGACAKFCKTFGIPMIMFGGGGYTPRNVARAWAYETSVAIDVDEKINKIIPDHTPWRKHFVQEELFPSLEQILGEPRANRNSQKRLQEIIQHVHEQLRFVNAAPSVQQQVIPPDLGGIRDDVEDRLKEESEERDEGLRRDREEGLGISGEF
The experiment in a line: co-IP; N. crassa WT-strain cell extracts with ectopic Myc-tagged protein, precipitated with anti-HDA-2 or anti-SIF-2 antibody, protein G-Sepharose; eluates blotted with anti-Myc and anti-HDA-2 or anti-SIF-2.

The target of test [2] is SIF-2 (endogenous) (Neurospora crassa (endogenous in N. crassa mycelium)) (UniProt Q1K8X0). Described as above.
The target of test [3] is T2, Myc-HDA-2 (histone deacetylase 2, 5Myc-6×His-HDA-2) (Neurospora crassa) (UniProt Q7SEL7).
T2 sequence: T1 sequence
The experiment in a line: co-IP; N. crassa cell extracts (4 mg/mL) incubated with monoclonal anti-c-Myc antibody 4 h at 4°C, protein G-Sepharose; eluates blotted with anti-SIF-2 or anti-HDA-2 and anti-Myc.

Results are given in words; binding and its absence hold for the method and conditions named. In cells and extracts the contact can be indirect. A result given as binding can be weak or reduced; the word gives no strength. For part of these data: Where a sequence is shown, tags or fusion partners need not be part of it.

With Myc-YIL112w (from UniProt Q7RYS2), the binding entry in test [1] and in test [2] was “binds” each time.
With “SIF-2 (endogenous) (from UniProt Q1K8X0)”, the binding entry in test [3] is given as “binds”.
